Experimental data as given in PubChem BioAssay AID504523 (Broad Institute, 2011).
Screen size: about 340,000 compounds; about 490 (0.14%) were called active. The inconclusive results got no clear call from the source; some entries with a clear call stand among them for comparison. Rule as the data show it: active = inhibition above about 12%; inconclusive = no clear call, values can overlap the other calls; inactive = below about 7.3%.

Amino acid sequences for entries named in this document (tags omitted).
UniProt Q14145, whole entry, looked up: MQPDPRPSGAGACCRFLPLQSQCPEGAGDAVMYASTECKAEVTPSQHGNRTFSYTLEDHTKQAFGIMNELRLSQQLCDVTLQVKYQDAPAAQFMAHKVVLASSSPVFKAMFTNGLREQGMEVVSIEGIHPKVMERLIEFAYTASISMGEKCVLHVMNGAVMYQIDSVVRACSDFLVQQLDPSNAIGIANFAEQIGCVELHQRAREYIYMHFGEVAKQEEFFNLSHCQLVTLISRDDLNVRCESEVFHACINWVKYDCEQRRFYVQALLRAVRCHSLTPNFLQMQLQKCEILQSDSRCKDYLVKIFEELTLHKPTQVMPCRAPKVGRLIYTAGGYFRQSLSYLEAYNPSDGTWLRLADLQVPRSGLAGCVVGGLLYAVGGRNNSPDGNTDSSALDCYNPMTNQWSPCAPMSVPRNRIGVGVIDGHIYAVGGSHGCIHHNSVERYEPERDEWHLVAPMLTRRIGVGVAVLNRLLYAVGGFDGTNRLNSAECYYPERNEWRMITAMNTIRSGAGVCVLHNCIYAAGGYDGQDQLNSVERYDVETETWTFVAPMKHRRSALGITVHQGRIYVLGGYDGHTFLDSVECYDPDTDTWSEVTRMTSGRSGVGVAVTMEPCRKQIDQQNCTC

What follows are compounds tested against Kelch-like ECH-associated protein 1 (Homo sapiens) (UniProt Q14145) (assay: disruptors of Keap1 binding to Nrf2 – biochemical, fluorescence polarization, single point, primary screen (AID 504523;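 also: human Keap1 Kelch domain with fluorescein labeled Nrf2 9mer peptide probe; 0% = neutral control wells and 100% = peptide positive control; higher means more block of Keap1 binding to Nrf2 peptide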)). Conditions: Keap1 Kelch-Nrf2 peptide fluorescence polarization, 1536-well; at 9.4 µM; hits give high values.

| Compound | inhibition |
| --- | --- |
| O=C(O)c1ccc(S(=O)(=O)c2ccc([N+](=O)[O-])cc2[N+](=O)[O-])cc1 | inconclusive: 8.58% |
| COCC(O)CNc1ccccc1 (stereo not given) | inactive: 0.896% |
| CC(C)(C)OC(=O)CC[C@@H](C(=O)NCCCCCCCCCCC(=O)N1CCN(C(=O)OC(C)(C)C)CC1)n1cc(CCCCCNC(=O)OC(C)(C)C)nn1 | inconclusive: 10.3% |
| CCC(CNc1cc(OC)cc2cccnc12)NC1CCCCC1 (stereo not given) | active: 17.2% |
| Cc1cc(C)c(NC(=O)CNC(=O)c2ccc3c(=O)n4c(nc3c2)CCC4)c(C)c1 | inactive: -6.08% |
| CCOC(=O)Cc1csc(SCc2nc3ccccc3c(=O)[nH]2)n1 | inactive: 1.08% |
| Cc1ccc(S(=O)(=O)Nc2cccc(-c3cn4ccsc4n3)c2)cc1 | inconclusive: 6.42% |
| O=C1NC(=O)/C(=C/c2cccc3ccccc23)S1 | inconclusive: 6.81% |
| COc1cccc(-c2ccnc3[nH]n(-c4ccccc4)c(=O)c23)c1 | inactive: 0.482% |
| O=C(C1CCCCC1)N1CCN=C1SCc1cccc([N+](=O)[O-])c1 | inconclusive: 9.58% |
| Cc1cccc(C)c1OCc1cc(C(=O)N(C)Cc2cc(C3CC3)n[nH]2)no1 | inconclusive: 7.29% |
| CCOC(=O)C1(C)NC(c2ccccc2F)C2C(=O)N(CC)C(=O)C21 (stereo not given) | inconclusive: 7.98% |
| CCCC1C(=O)N(c2ccccc2)C1c1ccccc1 (stereo not given) | inconclusive: 11.9% |
| CCOC(=O)c1cc2c(=O)n3ccccc3nc2n(Cc2ccco2)c1=NC(=O)c1cccnc1 | inconclusive: 11.1% |
| CCOC(=O)c1cnc2ccc(C)cc2c1N(C)Cc1ccccc1 | inconclusive: 9.31% |
| COc1ccc(CCNS(=O)(=O)c2ccc3c(c2)CCN3C(=O)C2CC2)cc1OC | inconclusive: 5.93% |
| O=C/C=C/c1c(-c2ccccc2)cc2oc3ccccc3cc1-2 | inactive: -7.05% |
| CC(=O)Nc1sc2c(c1-c1nc3ccccc3s1)CCN(C(C)C)C2 | inactive: -17.2% |
| COC(=O)c1c(=O)n(O)c2ccc(OC)cc2[n+]1[O-] | active: 23.6% |
| CCCCNC(=O)N(O)C1N(/N=C/c2ccccc2O)C(=S)SC1(C)C (stereo not given) | inconclusive: 9.5% |
| Cc1nn(CC(=O)NCc2cccnc2)c(C)c1[N+](=O)[O-] | inactive: -0.51% |
| N#CC1(NC(=O)COC(=O)C2=COCCO2)CCCCC1 | active: 194% |
| Cc1cccc(NC(=O)CSc2ncnc3c2oc2ccccc23)c1 | inactive: -2.7% |

| Compound | inhibition |
| --- | --- |
| O=C1c2ccccc2NC(c2cn[nH]c2-c2ccc(Cl)cc2)N1O (stereo not given) | active: 12.2% |
| CN(C)c1ccc(C(c2nnnn2CCOC(=O)Nc2ccc(Cl)cc2)N2CCOCC2)cc1 (stereo not given) | inconclusive: 7.46% |
| CN=C1S/C(=C/c2cn(CC(=O)OC)c3ccccc23)C(=O)N1C | inconclusive: 9.96% |
| CCCc1cc(NC(=O)COC(=O)c2nccnc2N)n(-c2ccccc2)n1 | active: 57.3% |
| Cc1ccc(-c2nc3sc(C#N)c(N)n3c(=O)c2C#N)cc1 | active: 14.3% |
| O=C(CNC(=O)c1ccccc1F)NCCc1ccc(Cl)cc1Cl | inconclusive: 6.47% |
| CCN1CC=C2C(C#N)=C(N)C(C#N)(C#N)[C@H](c3cccc(OC)c3OC)[C@H]2C1 | active: 16% |
| NC(=O)c1cc2ccc(O)cc2oc1=NCc1ccccc1 | active: 16.1% |
| COc1ccc(Cc2nnc(NC(=O)c3cc(OC)c(OC)c(OC)c3)s2)cc1OC | inconclusive: 5.74% |
| CCCCNC(=O)c1onc(CSc2cc(C)cc(C)c2)c1C(=O)NCCCC | inactive: 0.101% |
| C=CCn1c(=O)/c(=C/c2cc(OC)c(OC)c(OC)c2)s/c1=C(/C#N)c1nc2ccccc2n1C | active: 29.9% |
| COc1ccc(CCNS(=O)(=O)c2ccc(Br)cc2)cc1OC | inconclusive: 10.9% |
| CNc1nc(-c2c(C)[nH]c3ccc(OC)cc23)cs1 | inconclusive: 7.11% |
| N=c1c(C(=O)NCc2ccc(F)cc2)cc2c(=O)n3ccccc3nc2n1Cc1cccnc1 | active: 13.1% |
| Oc1ccccc1C=NCCCCCCN=Cc1ccccc1O | inactive: -4.34% |
| Cc1cccc(NC(=O)c2nc[nH]c2C(=O)NC2CCN(C(=O)OC(C)(C)C)CC2)c1 | inactive: -2.27% |
| N#Cc1c(NC(=O)c2ccc(-c3ccccc3[N+](=O)[O-])o2)sc2c1CCCC2 | inactive: -5.49% |
| O=C(CCCn1c(=S)[nH]c2ccc(Br)cc2c1=O)N1CCN(c2ccccn2)CC1 | inconclusive: 8.75% |
| N#Cc1cc([N+](=O)[O-])ccc1Oc1cccc(/C=N/NC(=O)c2cccc(Cl)c2)c1 | inactive: 1.53% |
| NC1=NC(=O)C(Cc2cccc(Cl)c2Cl)S1 (stereo not given) | inconclusive: 9.7% |
| COc1ccccc1/C=C1\SC(=S)N(CCC(=O)NC2=NCCS2)C1=O | inconclusive: 11.3% |
| CC(=O)Nc1ccc(C(=O)OCCc2ccccc2)cc1 | inactive: -10.9% |
| O=C(Oc1ccc(-c2cnc3ccccc3n2)cc1)c1ccco1 | inactive: -6.49% |

Structures above with an NH in an aromatic ring (seven):

| Compound | inhibition |
| --- | --- |
| CCOC(=O)Cc1csc(SCc2nc3ccccc3c(=O)[nH]2)n1 | inactive: 1.08% |
| COc1cccc(-c2ccnc3[nH]n(-c4ccccc4)c(=O)c23)c1 | inactive: 0.482% |
| Cc1cccc(C)c1OCc1cc(C(=O)N(C)Cc2cc(C3CC3)n[nH]2)no1 | inconclusive: 7.29% |
| O=C1c2ccccc2NC(c2cn[nH]c2-c2ccc(Cl)cc2)N1O (stereo not given) | active: 12.2% |
| CNc1nc(-c2c(C)[nH]c3ccc(OC)cc23)cs1 | inconclusive: 7.11% |
| Cc1cccc(NC(=O)c2nc[nH]c2C(=O)NC2CCN(C(=O)OC(C)(C)C)CC2)c1 | inactive: -2.27% |
| O=C(CCCn1c(=S)[nH]c2ccc(Br)cc2c1=O)N1CCN(c2ccccn2)CC1 | inconclusive: 8.75% |

Continued.

| Compound | inhibition |
| --- | --- |
| CNC(=S)NNC(=O)c1oc2nc(-c3ccccc3)cc(-c3ccco3)c2c1N | inconclusive: 3.67% |
| N=c1c(C(=O)NC2CCCC2)cc2c(=O)n3ccccc3nc2n1Cc1ccccc1 | inconclusive: 12% |
| NCC12CC3CC(C1)CC(c1ccc(Br)cc1)(C3)C2 | inconclusive: 6.06% |
| Cc1cc(O)c(C(C)C)cc1N=C1CSC(=O)N1 | inactive: -0.471% |
| Cc1ccc(S(=O)(=O)/N=c2\scc(C)n2C)cc1 | inconclusive: 8.51% |
| COc1ccc(Oc2nnc(-c3ccccc3)cc2C#N)cc1 | inconclusive: 8.39% |
| O=C1NC(=S)S/C1=C\c1ccc(SCc2ccco2)o1 | active: 20.7% |
| O=C(/C=C\c1cccs1)N1CCN(Cc2ccc3c(c2)OCO3)CC1 | inactive: -3.31% |
| CC(C)OC(=O)c1c2c(n3ccccc13)C(=O)c1ccccc1C2=O | inconclusive: -1% |
| O=C(C1=NN(c2ccccc2)C2C(=O)N(c3ccccc3)C(=O)C12)c1ccccc1 (stereo not given) | active: 53.7% |
| CC1Cc2ccccc2N1C(=O)COC(=O)c1ccc(Cl)c(S(=O)(=O)N2CCOCC2)c1 (stereo not given) | inconclusive: 8.58% |
| Cc1cccc(N2CC(C(=O)NCC3COc4ccccc4O3)CC2=O)c1C (stereo not given) | inactive: -2.38% |
| CC(C(=O)O/N=C(\N)c1cccnc1)c1ccc([N+](=O)[O-])cc1 (stereo not given) | inactive: -4.78% |
| O=C(COC(=O)c1cccnc1Cl)Nc1ccc(N2CCCCC2)cc1 | active: 43.2% |
| Cc1ccc(OCCC(=O)OCC(=O)Nc2cc(C)cc(C)c2)cc1 | inconclusive: 10.3% |
| O=C(CN1CCN(C(c2ccccc2)c2ccccc2)CC1)Nc1ccc(N2CCOCC2)cc1 | inconclusive: 4.3% |
| c1ccc(C(NCCNC(c2ccccc2)c2ccccc2)c2ccccc2)cc1 | inconclusive: 7.69% |
| CC(C)Cn1c(N)c(C(=O)CSc2nnc(-c3ccco3)n2C)c(=O)n(C)c1=O | active: 68.4% |
| CCSC1=N/C(=C\c2ccc3c(c2)OCO3)C(=O)S1 | inconclusive: -29.5% |
| CCOc1ccc(CCNC(=O)CCS(=O)(=O)c2ccc(OC)cc2)cc1OCC | inactive: 1.5% |
| CCOC(=O)N1CCN(C(=O)COC(=O)C2CCN(S(=O)(=O)c3c(Cl)cccc3Cl)CC2)CC1 | inconclusive: 9.32% |
| Cc1ccc(S(=O)(=O)N2CCOCC2)cc1C(=O)O | inactive: -3.11% |
| CS(=O)(=O)N(CC(=O)N1CCOCC1)c1cc(C(F)(F)F)ccc1Cl | inconclusive: 7.17% |

| Compound | inhibition |
| --- | --- |
| COc1ccc([C@H]2CC(=O)C=C(c3cccc(OCc4ccccc4)c3)C2)cc1 | inconclusive: 9.75% |
| CCC(=O)c1cn(CC(=O)Nc2ccc(C)cc2C)c2ccccc12 | inconclusive: 10.6% |
| COc1ccc(CN(C)C(=O)c2cc(S(=O)(=O)Nc3ccccc3F)ccc2C)c(OC)c1 | inconclusive: 10.2% |
| Cc1ccc(OC(C)C(=O)N2CCN(c3ccccn3)CC2)cc1 (stereo not given) | active: 35.1% |
| Cn1cnnc1SCC(=O)Nc1ncc(C(F)(F)F)cc1Cl | inconclusive: 8.67% |
| Cc1ccc(NC(=O)c2sccc2-n2cccc2)c(Cl)c1 | inactive: -1.91% |
| COc1ccc(C(=O)NC2=Nc3ccccc3N=C(C)C2c2ccccc2)cc1 (stereo not given) | inactive: -2.29% |
| COc1cccc(N2C(=O)Nc3ccc(Br)cc3C2(O)C(=O)NCCN(C)C)c1 (stereo not given) | inconclusive: 10.3% |
| Cc1nc(-c2cccc(NC(=O)C3CCCCC3)c2)cs1 | inconclusive: 7.52% |
| CCOc1cccc(CN2CCC(CCC(=O)NC3CC3)CC2)c1O | inactive: -6.78% |
| O=C(O)CC(Cn1cnnn1)c1ccccc1 (stereo not given) | active: 20.2% |
| O=C(O)CCCN1C(=O)/C(=C/C=C/c2ccco2)SC1=S | inconclusive: 3.96% |
| Nc1cccc2c1C(=O)N(CCOc1ccc(F)cc1)C2=O | inconclusive: 11.4% |
| CCOc1ccc(S(=O)(=O)N2CCN(S(=O)(=O)c3ccc(C)c(C)c3)CC2)cc1 | inconclusive: 6.69% |
| Cc1ccc(/C=C2\SC(=S)N(CCC(=O)N3CCCCC3)C2=O)cc1 | inconclusive: 5.71% |
| Cc1nn(-c2cccc(C(F)(F)F)c2)c(=O)c2noc(C)c12 | inconclusive: 11.8% |
| COc1ccc(C=Nc2cccnc2N)cc1 | active: 22.8% |
| CCCCn1c2c(c(=O)n(C)c1=O)C(c1ccc(OC)cc1)N1CCCCCC1=N2 (stereo not given) | inactive: -4.48% |
| CC1CCCN(c2nc3ccccc3nc2C(C#N)S(=O)(=O)c2ccccc2)C1 (stereo not given) | inconclusive: 11.3% |
| CCCCOCCCNc1ncnc2c1[nH]c1ccccc12 | inactive: 2.91% |
| CC(C)NCc1c(O)c(Br)cc2oc3c(c12)CCCC3 | inconclusive: 6.36% |
